According to publication PMC5485742:

Legend:
[1] = biological target: CHIQ1, yeast two-hybrid fusion (Arabidopsis thaliana) (UniProt O22146); test: two-hybrid; CHIQ1 against potential interactors from the co-IP/MS (CHIQ1 family members, TFs) in yeast, pDEST22 and pDEST32 vectors; quantified in Fig. 5b
[2] = biological target: CHIQ1, yeast two-hybrid fusion (Arabidopsis thaliana) (UniProt O22146); test: two-hybrid; all-by-all physical interaction analysis among nine CHIQ proteins in yeast (Table S9)

| Substance | binding [1] | binding [2] |
| --- | --- | --- |
| CHIQUITA1-LIKE 5 (CHIQL5), yeast two-hybrid fusion (from UniProt Q9MAG4) | binds |  |
| CHIQUITA1-LIKE 6 (CHIQL6), yeast two-hybrid fusion (from UniProt Q9LP57) | binds |  |
| CHIQUITA1-LIKE 7 (CHIQL7), yeast two-hybrid fusion (from UniProt Q6NPZ8) |  | binds |

Results are given in words; binding and its absence hold for the method and conditions named. A result given as binding can be weak or reduced; the word gives no strength. For part of these data: Binding seen in cells or lysates may run through a third protein.
